No constants are given. Whether binding was seen depends on the method and setting. In cells and extracts the contact can be indirect. Some results given as binding are weak or reduced against the parent protein; the word gives no strength. Where a sequence is shown, tags or fusion partners need not be part of it.
Experiments:
[1] = molecular target: T1, FLAG-tagged COPA p.R1058C (C-terminal domain mutant) (human) (UniProt P53621); assay: co-IP; HEK293T cells cotransfected with FLAG-tagged WT or mutant COPA, COPB2 and COPE; whole-cell extract 48 h after transfection incubated overnight with anti-DDK (FLAG) antibody, Protein G magnetic beads, washes with PBS 0.1% Tween-20; immunoblot of eluate and input for FLAG, COPB2 and COPE
T1 sequence: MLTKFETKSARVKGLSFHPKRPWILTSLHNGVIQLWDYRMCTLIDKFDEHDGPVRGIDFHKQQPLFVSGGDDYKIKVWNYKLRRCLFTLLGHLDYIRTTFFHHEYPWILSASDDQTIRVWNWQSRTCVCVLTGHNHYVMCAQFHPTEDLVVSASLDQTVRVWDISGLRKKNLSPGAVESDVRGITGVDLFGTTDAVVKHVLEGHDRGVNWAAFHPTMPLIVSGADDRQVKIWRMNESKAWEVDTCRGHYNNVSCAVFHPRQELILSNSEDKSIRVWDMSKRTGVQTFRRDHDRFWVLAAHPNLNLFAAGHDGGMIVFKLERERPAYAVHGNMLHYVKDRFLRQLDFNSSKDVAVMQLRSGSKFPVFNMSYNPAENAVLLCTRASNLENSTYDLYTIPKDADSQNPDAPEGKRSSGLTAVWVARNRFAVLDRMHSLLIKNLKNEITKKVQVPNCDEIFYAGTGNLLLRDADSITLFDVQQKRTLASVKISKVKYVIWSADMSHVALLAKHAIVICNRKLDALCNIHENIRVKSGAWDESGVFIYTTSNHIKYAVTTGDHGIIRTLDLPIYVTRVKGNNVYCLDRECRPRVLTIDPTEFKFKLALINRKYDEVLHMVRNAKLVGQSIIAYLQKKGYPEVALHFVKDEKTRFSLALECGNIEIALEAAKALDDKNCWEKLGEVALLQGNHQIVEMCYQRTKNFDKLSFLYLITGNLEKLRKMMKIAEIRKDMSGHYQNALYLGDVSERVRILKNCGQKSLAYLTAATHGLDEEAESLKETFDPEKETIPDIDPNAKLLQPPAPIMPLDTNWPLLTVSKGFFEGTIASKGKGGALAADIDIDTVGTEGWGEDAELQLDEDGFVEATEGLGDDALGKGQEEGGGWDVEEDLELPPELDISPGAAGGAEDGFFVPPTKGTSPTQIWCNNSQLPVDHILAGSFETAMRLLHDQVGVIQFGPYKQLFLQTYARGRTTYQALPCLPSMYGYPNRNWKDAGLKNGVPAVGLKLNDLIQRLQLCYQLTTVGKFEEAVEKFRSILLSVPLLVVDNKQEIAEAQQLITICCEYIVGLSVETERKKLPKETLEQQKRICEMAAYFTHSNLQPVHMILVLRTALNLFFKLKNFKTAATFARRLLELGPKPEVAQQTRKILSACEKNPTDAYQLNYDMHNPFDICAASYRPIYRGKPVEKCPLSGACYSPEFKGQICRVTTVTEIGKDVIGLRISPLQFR

[2] = molecular target: T2, FLAG-tagged COPA p.R1142X (truncated C-terminal domain mutant) (human) (UniProt P53621); assay: as above
T2 sequence: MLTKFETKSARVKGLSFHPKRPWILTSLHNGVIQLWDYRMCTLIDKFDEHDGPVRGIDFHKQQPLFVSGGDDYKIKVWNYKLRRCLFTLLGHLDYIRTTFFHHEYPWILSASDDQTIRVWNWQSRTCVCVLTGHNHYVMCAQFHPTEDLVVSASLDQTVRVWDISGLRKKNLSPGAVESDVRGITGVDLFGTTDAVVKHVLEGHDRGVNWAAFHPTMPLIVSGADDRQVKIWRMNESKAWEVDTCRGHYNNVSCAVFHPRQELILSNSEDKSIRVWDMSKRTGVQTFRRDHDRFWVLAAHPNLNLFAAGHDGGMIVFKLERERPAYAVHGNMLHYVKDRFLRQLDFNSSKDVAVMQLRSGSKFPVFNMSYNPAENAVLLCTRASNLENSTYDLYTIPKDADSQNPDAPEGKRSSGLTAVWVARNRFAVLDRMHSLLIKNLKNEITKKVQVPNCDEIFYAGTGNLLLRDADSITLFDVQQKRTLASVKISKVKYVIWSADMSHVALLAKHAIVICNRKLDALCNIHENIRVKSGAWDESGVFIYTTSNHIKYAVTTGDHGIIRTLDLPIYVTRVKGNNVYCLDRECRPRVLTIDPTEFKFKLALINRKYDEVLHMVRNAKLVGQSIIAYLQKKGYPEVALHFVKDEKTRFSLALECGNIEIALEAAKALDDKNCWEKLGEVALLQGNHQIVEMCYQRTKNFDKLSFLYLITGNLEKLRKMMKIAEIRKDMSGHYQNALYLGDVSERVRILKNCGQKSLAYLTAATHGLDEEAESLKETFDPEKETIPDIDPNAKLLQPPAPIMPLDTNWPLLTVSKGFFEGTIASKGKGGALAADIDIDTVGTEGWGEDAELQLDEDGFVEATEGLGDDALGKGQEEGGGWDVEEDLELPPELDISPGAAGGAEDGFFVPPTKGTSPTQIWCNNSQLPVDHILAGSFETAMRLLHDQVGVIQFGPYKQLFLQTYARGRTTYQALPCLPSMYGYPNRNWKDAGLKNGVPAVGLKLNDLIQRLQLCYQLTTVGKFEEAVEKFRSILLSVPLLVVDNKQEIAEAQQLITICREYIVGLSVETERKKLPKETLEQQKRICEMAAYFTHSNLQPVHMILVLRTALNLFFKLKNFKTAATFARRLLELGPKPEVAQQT

binding [1]: binds
binding [2]: binds
B1: COPB2 (protein, UniProt P35606 1-906)
chain: MPLRLDIKRKLTARSDRVKSVDLHPTEPWMLASLYNGSVCVWNHETQTLVKTFEVCDLPVRAAKFVARKNWVVTGADDMQIRVFNYNTLERVHMFEAHSDYIRCIAVHPTQPFILTSSDDMLIKLWDWDKKWSCSQVFEGHTHYVMQIVINPKDNNQFASASLDRTIKVWQLGSSSPNFTLEGHEKGVNCIDYYSGGDKPYLISGADDRLVKIWDYQNKTCVQTLEGHAQNVSCASFHPELPIIITGSEDGTVRIWHSSTYRLESTLNYGMERVWCVASLRGSNNVALGYDEGSIIVKLGREEPAMSMDANGKIIWAKHSEVQQANLKAMGDAEIKDGERLPLAVKDMGSCEIYPQTIQHNPNGRFVVVCGDGEYIIYTAMALRNKSFGSAQEFAWAHDSSEYAIRESNSIVKIFKNFKEKKSFKPDFGAESIYGGFLLGVRSVNGLAFYDWDNTELIRRIEIQPKHIFWSDSGELVCIATEESFFILKYLSEKVLAAQETHEGVTEDGIEDAFEVLGEIQEIVKTGLWVGDCFIYTSSVNRLNYYVGGEIVTIAHLDRTMYLLGYIPKDNRLYLGDKELNIISYSLLVSVLEYQTAVMRRDFSMADKVLPTIPKEQRTRVAHFLEKQGFKQQALTVSTDPEHRFELALQLGELKIAYQLAVEAESEQKWKQLAELAISKCQFGLAQECLHHAQDYGGLLLLATASGNANMVNKLAEGAERDGKNNVAFMSYFLQGKVDACLELLIRTGRLPEAAFLARTYLPSQVSRVVKLWRENLSKVNQKAAESLADPTEYENLFPGLKEAFVVEEWVKETHADLWPAKQYPLVTPNEERNVMEEGKDFQPSRSTAQQELDGKPASPTPVIVASHTANKEEKSLLELEVDLDNLELEDIDTTDINLDEDILDD

Reference: PMC10866661
